Data taken from the supplement of paper PMC6411743.
± gives the standard deviation of the averaged measurements. Only a part is listed here, and it is no random draw.

Experiments:
Assay in all cases: NP40-soluble protein abundance relative to vehicle (solubility fold change) (ratio); higher = more soluble protein in presence of ATP
[1] = molecular target: T1, E9PS17 and related entries (UniProt Q96KG9)
T1 sequence (whole entry): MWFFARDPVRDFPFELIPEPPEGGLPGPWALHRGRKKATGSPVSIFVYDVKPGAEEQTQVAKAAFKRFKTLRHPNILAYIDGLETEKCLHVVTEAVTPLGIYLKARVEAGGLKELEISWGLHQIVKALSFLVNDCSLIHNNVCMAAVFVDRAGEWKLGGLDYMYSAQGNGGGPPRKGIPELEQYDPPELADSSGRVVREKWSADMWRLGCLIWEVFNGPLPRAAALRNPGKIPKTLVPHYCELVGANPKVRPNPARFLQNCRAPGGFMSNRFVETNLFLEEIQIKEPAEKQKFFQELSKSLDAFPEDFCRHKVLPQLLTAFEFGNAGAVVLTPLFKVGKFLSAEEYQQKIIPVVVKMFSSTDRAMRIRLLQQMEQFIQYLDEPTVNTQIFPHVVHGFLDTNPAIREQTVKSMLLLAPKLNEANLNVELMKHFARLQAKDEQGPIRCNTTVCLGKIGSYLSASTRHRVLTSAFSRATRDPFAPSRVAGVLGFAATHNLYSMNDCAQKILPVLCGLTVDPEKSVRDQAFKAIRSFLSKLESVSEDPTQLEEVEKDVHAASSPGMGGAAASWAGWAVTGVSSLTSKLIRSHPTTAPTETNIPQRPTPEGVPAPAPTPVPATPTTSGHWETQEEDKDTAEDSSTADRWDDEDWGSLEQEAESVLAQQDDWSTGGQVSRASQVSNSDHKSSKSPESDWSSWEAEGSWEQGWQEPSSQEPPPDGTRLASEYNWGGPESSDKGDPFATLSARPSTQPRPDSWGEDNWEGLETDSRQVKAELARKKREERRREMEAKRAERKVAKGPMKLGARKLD
In short: (§1)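 Jurkat crude lysate prepared with a Dounce homogeniser was treated at eight concentrations spanning 0.1 to 10 mM, 10 min at room temperature then 3 min at 37 °C. Solubilisation with 0.8% NP40 and benzonase and ultracentrifugation preceded TMT labelling of the supernatant for LC-MS/MS. Fold change against the detergent-processed vehicle was determined per replicate from vsn-normalised intensities, across three independent experiments.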

[2] = molecular target: T2, F5H2B9 and related entries (UniProt Q9BZF9)
T2 sequence (whole entry): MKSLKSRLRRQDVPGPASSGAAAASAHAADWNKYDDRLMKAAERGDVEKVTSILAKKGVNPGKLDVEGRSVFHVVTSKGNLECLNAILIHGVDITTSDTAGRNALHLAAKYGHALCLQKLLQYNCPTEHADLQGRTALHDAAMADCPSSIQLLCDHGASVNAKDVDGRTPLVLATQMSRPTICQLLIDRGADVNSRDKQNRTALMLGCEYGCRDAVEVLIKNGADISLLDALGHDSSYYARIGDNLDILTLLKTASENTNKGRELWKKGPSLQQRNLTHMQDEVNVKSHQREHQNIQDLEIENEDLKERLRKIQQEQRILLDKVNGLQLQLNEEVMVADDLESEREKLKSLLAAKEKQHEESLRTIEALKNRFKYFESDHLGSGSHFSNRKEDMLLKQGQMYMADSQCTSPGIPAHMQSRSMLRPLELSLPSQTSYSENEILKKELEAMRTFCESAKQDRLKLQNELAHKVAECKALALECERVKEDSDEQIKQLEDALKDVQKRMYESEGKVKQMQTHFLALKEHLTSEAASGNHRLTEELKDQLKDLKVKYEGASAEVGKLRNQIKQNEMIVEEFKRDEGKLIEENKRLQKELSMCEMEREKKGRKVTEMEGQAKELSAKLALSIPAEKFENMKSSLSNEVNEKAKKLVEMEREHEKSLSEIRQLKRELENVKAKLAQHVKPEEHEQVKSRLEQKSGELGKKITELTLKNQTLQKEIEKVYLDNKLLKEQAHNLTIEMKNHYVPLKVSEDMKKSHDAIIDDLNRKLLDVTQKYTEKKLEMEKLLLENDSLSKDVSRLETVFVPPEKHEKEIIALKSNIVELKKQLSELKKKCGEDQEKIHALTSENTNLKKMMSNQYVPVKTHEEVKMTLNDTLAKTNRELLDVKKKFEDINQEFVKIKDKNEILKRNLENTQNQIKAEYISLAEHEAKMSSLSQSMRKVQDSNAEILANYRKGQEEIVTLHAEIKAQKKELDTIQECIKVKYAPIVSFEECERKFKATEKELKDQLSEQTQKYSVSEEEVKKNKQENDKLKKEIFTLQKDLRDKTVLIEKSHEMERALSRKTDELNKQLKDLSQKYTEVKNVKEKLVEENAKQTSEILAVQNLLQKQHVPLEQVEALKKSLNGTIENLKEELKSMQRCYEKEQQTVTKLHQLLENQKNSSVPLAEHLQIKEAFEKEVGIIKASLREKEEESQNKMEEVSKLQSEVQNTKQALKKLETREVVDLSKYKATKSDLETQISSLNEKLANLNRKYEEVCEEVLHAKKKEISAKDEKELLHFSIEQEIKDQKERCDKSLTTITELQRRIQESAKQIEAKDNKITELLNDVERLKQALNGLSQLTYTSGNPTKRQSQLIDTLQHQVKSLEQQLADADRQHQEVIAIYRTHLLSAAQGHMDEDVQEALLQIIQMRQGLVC
In short: as §1

[3] = molecular target: T3, F8VX10 and related entries (UniProt Q9H9L4)
T3 sequence (whole entry): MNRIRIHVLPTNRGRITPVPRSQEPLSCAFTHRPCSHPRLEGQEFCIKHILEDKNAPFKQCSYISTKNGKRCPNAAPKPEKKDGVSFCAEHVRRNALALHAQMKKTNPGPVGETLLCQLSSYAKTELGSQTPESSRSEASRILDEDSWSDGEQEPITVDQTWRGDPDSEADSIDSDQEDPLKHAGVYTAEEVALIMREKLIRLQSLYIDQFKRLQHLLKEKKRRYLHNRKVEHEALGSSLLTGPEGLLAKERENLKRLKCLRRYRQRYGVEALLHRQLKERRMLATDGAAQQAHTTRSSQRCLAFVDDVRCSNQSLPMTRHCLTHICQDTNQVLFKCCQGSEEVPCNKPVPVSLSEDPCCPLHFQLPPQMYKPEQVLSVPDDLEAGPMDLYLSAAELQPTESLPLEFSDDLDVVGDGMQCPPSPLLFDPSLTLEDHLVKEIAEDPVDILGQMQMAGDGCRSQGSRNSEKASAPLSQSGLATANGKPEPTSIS
In short: as §1

[4] = molecular target: T4, G3V1M0 and related entries (UniProt Q9Y5A6)
T4 sequence (whole entry): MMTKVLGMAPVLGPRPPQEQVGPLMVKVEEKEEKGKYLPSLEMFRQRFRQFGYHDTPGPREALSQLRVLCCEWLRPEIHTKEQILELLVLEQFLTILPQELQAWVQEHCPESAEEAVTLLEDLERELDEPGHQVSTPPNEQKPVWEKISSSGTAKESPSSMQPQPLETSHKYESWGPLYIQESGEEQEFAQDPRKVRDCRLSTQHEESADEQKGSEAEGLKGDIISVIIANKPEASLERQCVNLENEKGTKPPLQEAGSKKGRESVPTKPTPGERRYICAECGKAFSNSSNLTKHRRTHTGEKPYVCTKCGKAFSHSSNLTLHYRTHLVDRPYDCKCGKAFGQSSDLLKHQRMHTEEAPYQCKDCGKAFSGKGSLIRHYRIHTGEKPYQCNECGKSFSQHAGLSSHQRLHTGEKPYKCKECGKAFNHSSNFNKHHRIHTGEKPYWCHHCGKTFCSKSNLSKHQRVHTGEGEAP
In short: as §1

Compound: Nc1ncnc2c1ncn2[C@@H]1O[C@H](COP(=O)(O)OP(=O)(O)OP(=O)(O)O)[C@@H](O)[C@H]1O [adenosine triphosphate]
- NP40-soluble protein abundance ([1]; concentration: 8mM): 0.97 ± 0.021
- NP40-soluble protein abundance ([1]; concentration: 10mM): 0.975 ± 0.046
- NP40-soluble protein abundance ([2]; concentration: 1mM): 1 ± 0.034
- NP40-soluble protein abundance ([2]; concentration: 2mM): 0.9979 ± 0.0089
- NP40-soluble protein abundance ([2]; concentration: 4mM): 0.968 ± 0.022
- NP40-soluble protein abundance ([2]; concentration: 6mM): 1.03 ± 0.02
- NP40-soluble protein abundance ([2]; concentration: 8mM): 0.979 ± 0.045
- NP40-soluble protein abundance ([2]; concentration: 10mM): 0.992 ± 0.033
- NP40-soluble protein abundance ([3]; concentration: 1mM): 0.994 ± 0.032
- NP40-soluble protein abundance ([3]; concentration: 2mM): 1.02 ± 0.043
- NP40-soluble protein abundance ([3]; concentration: 4mM): 0.991 ± 0.086
- NP40-soluble protein abundance ([3]; concentration: 6mM): 1.07 ± 0.085
- NP40-soluble protein abundance ([3]; concentration: 8mM): 0.988 ± 0.07
- NP40-soluble protein abundance ([3]; concentration: 10mM): 1.14 ± 0.074
- NP40-soluble protein abundance ([4]; concentration: 1mM): 0.985 ± 0.086
- NP40-soluble protein abundance ([4]; concentration: 2mM): 0.962 ± 0.1
- NP40-soluble protein abundance ([4]; concentration: 4mM): 0.949 ± 0.12
- NP40-soluble protein abundance ([4]; concentration: 6mM): 0.975 ± 0.2
- NP40-soluble protein abundance ([4]; concentration: 8mM): 0.945 ± 0.1
- NP40-soluble protein abundance ([4]; concentration: 10mM): 0.951 ± 0.15
